Earlier results in patent US20200214990A1, “Tadalafil orally dissolving film and preparation method thereof” (priority 2016, published 2020).
At least one compound was matched to its structure with a doubt left.

Tested on: PDE6 to PDE5

CN1CC(=O)N2[C@H](c3ccc4c(c3)OCO4)c3[nH]c4ccccc4c3C[C@@H]2C1=O [tadalafil]
IC50 ratio of PDE6 to PDE5: 780 | IC50 ratio of PDE6 to PDE5, times that of sildenafil (relative to sildenafil): 118 times | IC50 ratio of PDE6 to PDE5, times that of vardenafil (relative to vardenafil): 269 times
